These are yes or no findings as the source states them, for the method shown. Tags and fused reporters may be left off the sequences shown.
T1: λ cI-UvrB 251–547 (1b3) fusion protein (E. coli, UniProt P0A8F8 251-547)
T1 construct: UvrB, E. coli, residues 251-547 (domains 1b and 3); also called UvrB domains 1b and 3; source: bacterial two-hybrid fusion, pRA03 derivative, in E. coli KS1; not shown: λ cI residues 1–236, N-terminal, kept
T1 sequence (looked up): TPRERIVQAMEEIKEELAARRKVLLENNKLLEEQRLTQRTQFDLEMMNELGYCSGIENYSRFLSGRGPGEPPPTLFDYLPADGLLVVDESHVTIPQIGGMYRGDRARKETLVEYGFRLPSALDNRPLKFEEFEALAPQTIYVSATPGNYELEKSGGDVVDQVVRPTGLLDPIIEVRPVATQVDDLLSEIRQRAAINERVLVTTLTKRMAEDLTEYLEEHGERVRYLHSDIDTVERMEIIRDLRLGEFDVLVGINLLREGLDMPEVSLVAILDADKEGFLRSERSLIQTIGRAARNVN

T2: λ cI-UvrB 527–673 (4) fusion protein (E. coli, UniProt P0A8F8 527-673)
T2 construct: UvrB, E. coli, residues 527-673 (domain 4); also called UvrB domain 4; source: bacterial two-hybrid fusion, pRA03 derivative, in E. coli KS1; not shown: λ cI residues 1–236, N-terminal, kept
T2 sequence (looked up): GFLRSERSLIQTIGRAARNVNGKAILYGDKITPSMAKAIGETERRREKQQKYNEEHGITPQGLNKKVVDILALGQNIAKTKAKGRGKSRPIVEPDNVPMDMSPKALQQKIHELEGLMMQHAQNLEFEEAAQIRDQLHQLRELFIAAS

T3: λ cI-UvrB 35–252 (1a2) fusion protein (E. coli, UniProt P0A8F8 35-252)
T3 construct: UvrB, E. coli, residues 35-252 (domains 1a and 2); also called UvrB fragment containing domains 1a and 2; source: bacterial two-hybrid fusion, pRA03 derivative, in E. coli KS1; not shown: λ cI residues 1–236, N-terminal, kept
T3 sequence (looked up): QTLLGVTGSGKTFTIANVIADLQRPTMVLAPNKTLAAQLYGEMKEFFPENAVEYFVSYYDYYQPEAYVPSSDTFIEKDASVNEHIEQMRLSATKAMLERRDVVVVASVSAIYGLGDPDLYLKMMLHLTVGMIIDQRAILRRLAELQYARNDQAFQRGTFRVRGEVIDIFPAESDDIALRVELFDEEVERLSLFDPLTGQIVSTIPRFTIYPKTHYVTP


Assays:
Assay in all cases: two-hybrid; bacterial 2-hybrid (Dove and Hochschild) in E. coli KS1: UvrD fragments fused to RNA polymerase α 1–248, UvrB fragments fused to λ cI 1–236; chromosomal lacZ reporter, β-galactosidase in Miller Units; LB with 1 mM IPTG, 30 °C, mid-log phase
[1] = target: T1, λ cI-UvrB 251–547 (1b3) fusion protein
[2] = target: T2, λ cI-UvrB 527–673 (4) fusion protein
[3] = target: T3, λ cI-UvrB 35–252 (1a2) fusion protein

Row | binding [1] | binding [2] | binding [3] | Binder
1 | no binding | no binding | – | α-UvrD 645–720 (C-extension) fusion protein (domain or fragment, E. coli, UniProt P03018 645-720, looked up, UvrD (helicase II), E. coli, residues 645-720 (unstructured C-terminal extension); also called C-terminal extension of UvrD (residues 645–720); source: bacterial two-hybrid fusion, pRA02 derivative, in E. coli KS1; not shown: RNA polymerase α subunit residues 1–248, N-terminal, kept) RLRATVSRPVSHQRMGTPMVENDSGYKLGQRVRHAKFGEGTIVNMEGSGEHSRLQVAFQGQGIKWLVAAYARLESV
2 | no binding | no binding | no binding | α-UvrD 83–214 (1b) fusion protein (domain or fragment, UniProt P03018 83-214) GGMWVGTFHGLAHRLLRAHHMDANLPQDFQILDSEDQLRLLKRLIKAMNLDEKQWPPRQAMWYINSQKDEGLRPHHIQSYGNPVEQTWQKVYQAYQEACDRAGLVDFAELLLRAHELWLNKPHILQHYRERF
